Experiment [1] concerns the target Bir3 domain of XIAP protein fused to GST (Homo sapiens (Human)) (UniProt P98170). Briefly: co-precipitation in COS-7 cells (Example 2, as referred to in the description).
Experiment [2] has the same target. Briefly: co-precipitation with glutathione beads from co-transfected COS-7 cells, Western blot. (In general: Immunoblotting shows a protein as a band on a membrane.)

By UniProt entry, the sequences of proteins in these tests, tags left out. Where a name states a change or a piece, a line headed by the entry shows the natural chain unless it says otherwise.
UniProt P98170: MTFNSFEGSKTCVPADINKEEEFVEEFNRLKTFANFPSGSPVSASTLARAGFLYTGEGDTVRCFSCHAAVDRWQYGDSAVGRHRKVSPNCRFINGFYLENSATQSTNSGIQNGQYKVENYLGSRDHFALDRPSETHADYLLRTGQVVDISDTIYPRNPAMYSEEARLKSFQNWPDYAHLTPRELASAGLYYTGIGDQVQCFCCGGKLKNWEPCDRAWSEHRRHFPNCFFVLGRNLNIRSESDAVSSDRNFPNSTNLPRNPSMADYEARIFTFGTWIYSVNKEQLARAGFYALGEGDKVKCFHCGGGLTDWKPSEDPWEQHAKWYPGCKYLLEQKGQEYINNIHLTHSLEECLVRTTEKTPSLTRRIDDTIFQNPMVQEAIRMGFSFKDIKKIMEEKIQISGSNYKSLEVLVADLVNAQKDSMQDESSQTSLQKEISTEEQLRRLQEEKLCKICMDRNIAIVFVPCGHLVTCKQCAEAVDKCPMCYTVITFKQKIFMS

Results are given in words; binding and its absence hold for the method and conditions named. In cells and extracts the contact can be indirect. Some binding calls cover weakened binding; strength is not graded here. Tags and fused reporters may be left off the sequences shown.

B1: myc-tagged ARTS C-terminus (27 C-terminal amino acids of ARTS protein with a myc tag) (peptide, not shown: small tags and cut ends)
chain: YGPSLRLLAPPGAVKGTGQEHQGQGCH
With B1, the binding entry in experiment [1] and in experiment [2] was “binds” each time.
